The test concerns the target Epidermal growth factor receptor (EGFR), endogenous in A549 cells (human (endogenous in A549)) (UniProt P00533). The experiment in a line: proximity ligation.

These are yes or no findings as the source states them, for the method shown. In cells and extracts the contact can be indirect. Some entries that bind do so weakly or less than the wild type.

“tyrosine-protein phosphatase transmembrane receptor PTPRF (from UniProt P10586 30-1907)”: the binding entry is on record as “binds”.

For the origin of these results see publication doi:10.1101/2024.12.21.629933.
